No constants are given. Whether binding was seen depends on the method and setting. In cells and extracts the contact can be indirect. Some results given as binding are weak or reduced against the parent protein; the word gives no strength.

Amino acid sequences for entries named in this document (tags omitted). A change or cut given only in a name is not applied to a line headed by its entry.
UniProt Q6MZP7, whole entry: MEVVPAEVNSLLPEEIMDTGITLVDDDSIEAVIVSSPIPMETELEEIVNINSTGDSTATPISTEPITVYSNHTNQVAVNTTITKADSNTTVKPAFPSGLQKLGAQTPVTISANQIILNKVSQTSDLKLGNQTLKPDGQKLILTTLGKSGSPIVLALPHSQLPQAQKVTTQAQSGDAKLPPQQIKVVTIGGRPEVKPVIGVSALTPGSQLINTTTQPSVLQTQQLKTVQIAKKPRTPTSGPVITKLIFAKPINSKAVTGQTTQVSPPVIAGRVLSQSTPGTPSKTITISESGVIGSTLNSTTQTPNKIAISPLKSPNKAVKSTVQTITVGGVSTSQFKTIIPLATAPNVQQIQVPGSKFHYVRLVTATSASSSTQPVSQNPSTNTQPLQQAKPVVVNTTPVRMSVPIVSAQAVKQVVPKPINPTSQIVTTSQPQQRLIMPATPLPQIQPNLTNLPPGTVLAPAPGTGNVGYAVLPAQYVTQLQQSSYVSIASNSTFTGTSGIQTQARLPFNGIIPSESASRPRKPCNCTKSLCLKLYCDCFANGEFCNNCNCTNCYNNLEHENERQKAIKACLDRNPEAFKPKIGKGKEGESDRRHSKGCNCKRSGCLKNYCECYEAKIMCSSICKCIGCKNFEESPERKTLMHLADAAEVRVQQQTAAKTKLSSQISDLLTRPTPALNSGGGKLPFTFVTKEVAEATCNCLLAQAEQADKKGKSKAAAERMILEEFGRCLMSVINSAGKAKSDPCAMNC
UniProt Q08999, whole entry: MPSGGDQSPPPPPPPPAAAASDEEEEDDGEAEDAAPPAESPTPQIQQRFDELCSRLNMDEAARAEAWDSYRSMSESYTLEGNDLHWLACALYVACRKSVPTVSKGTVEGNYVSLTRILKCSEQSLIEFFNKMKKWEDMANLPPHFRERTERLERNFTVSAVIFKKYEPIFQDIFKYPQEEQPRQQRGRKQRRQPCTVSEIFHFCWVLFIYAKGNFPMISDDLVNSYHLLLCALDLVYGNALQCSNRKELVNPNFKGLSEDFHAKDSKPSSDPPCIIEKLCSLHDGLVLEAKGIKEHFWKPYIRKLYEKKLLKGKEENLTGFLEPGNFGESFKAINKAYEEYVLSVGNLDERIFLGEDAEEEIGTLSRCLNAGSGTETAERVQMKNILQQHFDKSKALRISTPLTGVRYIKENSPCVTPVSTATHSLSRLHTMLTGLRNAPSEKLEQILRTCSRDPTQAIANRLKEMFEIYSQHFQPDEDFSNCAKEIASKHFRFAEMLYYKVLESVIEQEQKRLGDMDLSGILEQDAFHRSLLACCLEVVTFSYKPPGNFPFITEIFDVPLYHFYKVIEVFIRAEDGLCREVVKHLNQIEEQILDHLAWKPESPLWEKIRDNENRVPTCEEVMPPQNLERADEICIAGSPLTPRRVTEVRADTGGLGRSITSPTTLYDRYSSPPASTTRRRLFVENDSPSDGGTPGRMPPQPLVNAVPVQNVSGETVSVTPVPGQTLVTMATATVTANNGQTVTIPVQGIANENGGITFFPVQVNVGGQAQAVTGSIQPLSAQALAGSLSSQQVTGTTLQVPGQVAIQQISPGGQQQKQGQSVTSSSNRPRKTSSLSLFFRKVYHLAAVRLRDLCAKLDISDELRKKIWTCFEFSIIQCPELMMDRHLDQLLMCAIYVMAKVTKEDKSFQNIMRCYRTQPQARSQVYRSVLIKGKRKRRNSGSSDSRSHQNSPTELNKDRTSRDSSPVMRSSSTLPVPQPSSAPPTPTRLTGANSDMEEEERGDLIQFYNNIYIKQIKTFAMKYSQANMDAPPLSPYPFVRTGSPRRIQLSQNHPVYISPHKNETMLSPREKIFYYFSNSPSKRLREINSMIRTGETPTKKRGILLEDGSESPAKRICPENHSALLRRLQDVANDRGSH

In paper PMC4974476, “Structural basis for LIN54 recognition of CHR elements in cell cycle-regulated promoters” one finds binding data, which are given here for one substance.

The experiment concerns the target V5-tagged wild-type LIN54 (human) (UniProt Q6MZP7). Briefly: co-IP; T98G cells co-transfected with V5-LIN54 (wild type or mutant) and HA-p130; extracts in EBC lysis buffer (50 mM Tris HCl pH 7.4, 150 mM NaCl, 0.5% NP-40); immunoprecipitated with anti-V5 antibody; western blot for LIN9, LIN37, Myb, V5 and HA. On the technique in general: In western blotting, separated proteins are transferred to a membrane and probed.

For the substance “haemagglutinin (HA)-tagged wild-type p130 (from UniProt Q08999 1-1139)”, the binding result is listed as “binds”.
